Patent publication US4189426A (Hoffmann-La Roche, Inc., priority 1978, dated 1980)

Experiment: general procedure: Boc solid-phase peptide synthesis; Boc-Phe resin; symmetrical anhydrides of Boc amino acids; Boc asparagine coupled in the presenc
Conditions: whole synthesis; for isolated yield: based on starting Boc-Phe resin

Row | Substance | isolated yield [%] | crude mass (scale 0.036 mmol) [mg] | crude mass (scale 0.042 mmol) [mg] | crude mass (scale 0.050 mmol) [mg]
1 | [Lys^135,136,138, Glu^137,139, Nle^170,Ala^165,182,189 ]-HGH-(135-191) | 4.7 | 167 |  | 
2 | [Nle^170, Ala^165,182,189 ]-HGH-(140-191) | 3.7 |  | 208 | 
3 | [Nle^170, Ala^165,182,189 ]-HGH-(145-191) | 4.6 |  |  | 178
